Laboratory results taken from the supplement of paper PMC11150407.
Hit rate of the full screen: of about 3,000 compounds, about 45 (2%) showed an effect of 50% or more. The list shows a part of the results.

The compounds below were run on MOLM1 and UCSD/AML1 (averaged) (assay: cell viability relative to DMSO control (POC); higher = less growth inhibition). Settings: 1 µM; 72 h.
Method: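 Primary viability screen in the 3q26 EVI1-high AML cell lines MOLM1 and UCSD/AML1, compounds at 1 uM for 72 h. ATP CellTiter-Glo read-out given as percent viable over DMSO control (POC), averaged over duplicates. This mapping covers the TimTec NDL-3000 natural derivative library, whose compounds are identified by TimTec catalogue codes (ST...).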

SMILES | cell viability
COc1cc(OC)cc(C(=O)Nc2ccc3nc(C)c(C)nc3c2)c1 | 95.5%
CCOC(=O)CNC(=O)c1cccc(OC)c1 | 102%
COc1ccc(CCNC(=O)CCCO)cc1OC | 100%
COc1ccc(-c2cc(=O)c3cc(O)ccc3o2)cc1 | 71.1%
O=C(Oc1ccc2c(=O)c(Oc3ccccc3Br)coc2c1)c1ccco1 | 96.4%
COc1cc(/C=C2/NC(=O)N(CC(=O)Nc3ccc(C)cc3)C2=O)cc2c1OCO2 | 98.3%
COC(=O)CNC(=O)c1cccc(OC)c1 | 103%
Cc1c(Cl)ccc2c1NC(C(=O)O)C1CC=CC21 (stereo not drawn) | 107%
O=C(CSc1nc2ccccc2c(=O)[nH]1)N1CCN(c2ccc(F)cc2)CC1 | 98.1%
COc1cccc(Nc2ncnc3nc[nH]c23)c1 | 102%
COc1cccc(N2C(=O)C3Cc4c([nH]c5ccccc45)C(c4ccccc4)N3C2=S)c1 (stereo not drawn) | 96.5%
Cc1ccc(-n2c(SCC(=O)N3CCCc4ccccc43)nc3c(=O)[nH]cnc32)cc1 | 105%
O=c1cc(-c2ccc(Cl)cc2)oc2c(Br)cc(Br)cc12 | 108%
CC(Nc1nc(N2CCNCC2)nc2ccccc12)c1ccccc1 (stereo not drawn) | 89.5%
COc1cc(C(=O)NC2CCCCC2NC(=O)c2cc(OC)c(OC)c(OC)c2)cc(OC)c1OC (stereo not drawn) | 111%
COCCOC(=O)c1c(C)n(CCNc2ccc([N+](=O)[O-])cc2Cl)c2c1cc(O)c1ccccc12 | 98.8%
Cc1ccc(N2COc3ccc4c(C)cc(=O)oc4c3C2)cc1 | 91.1%
Cc1ccc(C(=O)NCCc2c(C)[nH]c3c(C)cccc23)cc1[N+](=O)[O-] | 89.3%
COc1cc2c(c(NC(=O)/C=C/c3ccccc3Cl)c1OC)C(=O)OC2 | 99.9%
COc1ccc(NC(=O)CSc2nc3c(=O)[nH]cnc3n2-c2ccc(C)cc2)cc1OC | 92.8%
COc1ccc(/C=N/NC(=O)c2cc(O)c(O)c(O)c2)cc1Cn1cnc([N+](=O)[O-])n1 | 95.5%
CCN(CC)C(=O)c1cc(=O)n(CC(=O)Nc2ccc(F)cc2F)c2ccccc12 | 107%
O=c1[nH]c(=O)n(C2CC(O)C(CO)O2)cc1C(F)(F)F (stereo not drawn) | 29.6%
COC(=O)CN1Cc2[nH]c3ccccc3c2CC1C(=O)OC (stereo not drawn) | 105%
COc1ccc2[nH]c(=O)c(Cc3ccccc3)c(O)c2c1 | 102%
Cc1[nH]c2ccccc2c1CCNC(=O)/C(=C/c1ccc(OC(C)C)cc1)NC(=O)c1ccccc1 | 104%
Cc1cc2c(c(O)c1-c1c(C)cc3c(c1O)/C(=C/Nc1ccc(Cc4ccc(N)cc4)cc1)C(=O)C(O)=C3C(C)C)/C(=C/Nc1ccc(Cc3ccc(N)cc3)cc1)C(=O)C(O)=C2C(C)C | 100%
Cc1ccc2nc(CC(=O)O)[nH]c2c1 | 98.4%

A section of the results above, for reference:
SMILES | cell viability
COC(=O)CNC(=O)c1cccc(OC)c1 | 103%
Cc1c(Cl)ccc2c1NC(C(=O)O)C1CC=CC21 (stereo not drawn) | 107%
